Measured values published in publication PMC5149529.
No constants are given. Whether binding was seen depends on the method and setting. Binding seen in cells or lysates may run through a third protein. Some binding calls cover weakened binding; strength is not graded here.

The chains behind the UniProt entries cited, without tags or fusion partners.
UniProt P70288: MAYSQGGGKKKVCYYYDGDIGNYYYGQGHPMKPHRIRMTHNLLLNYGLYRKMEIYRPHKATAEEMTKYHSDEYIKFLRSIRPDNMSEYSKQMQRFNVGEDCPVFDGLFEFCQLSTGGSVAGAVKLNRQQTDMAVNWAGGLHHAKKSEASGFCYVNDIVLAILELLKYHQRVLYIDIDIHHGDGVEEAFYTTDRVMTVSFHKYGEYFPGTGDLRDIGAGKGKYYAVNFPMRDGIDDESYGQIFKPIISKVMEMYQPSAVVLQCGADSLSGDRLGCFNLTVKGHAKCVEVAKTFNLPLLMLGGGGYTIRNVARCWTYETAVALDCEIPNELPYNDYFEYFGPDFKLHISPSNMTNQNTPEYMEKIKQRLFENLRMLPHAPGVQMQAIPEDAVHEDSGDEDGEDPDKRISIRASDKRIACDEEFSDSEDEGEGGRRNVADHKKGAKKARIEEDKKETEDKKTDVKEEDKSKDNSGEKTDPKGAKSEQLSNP
UniProt B1AR17: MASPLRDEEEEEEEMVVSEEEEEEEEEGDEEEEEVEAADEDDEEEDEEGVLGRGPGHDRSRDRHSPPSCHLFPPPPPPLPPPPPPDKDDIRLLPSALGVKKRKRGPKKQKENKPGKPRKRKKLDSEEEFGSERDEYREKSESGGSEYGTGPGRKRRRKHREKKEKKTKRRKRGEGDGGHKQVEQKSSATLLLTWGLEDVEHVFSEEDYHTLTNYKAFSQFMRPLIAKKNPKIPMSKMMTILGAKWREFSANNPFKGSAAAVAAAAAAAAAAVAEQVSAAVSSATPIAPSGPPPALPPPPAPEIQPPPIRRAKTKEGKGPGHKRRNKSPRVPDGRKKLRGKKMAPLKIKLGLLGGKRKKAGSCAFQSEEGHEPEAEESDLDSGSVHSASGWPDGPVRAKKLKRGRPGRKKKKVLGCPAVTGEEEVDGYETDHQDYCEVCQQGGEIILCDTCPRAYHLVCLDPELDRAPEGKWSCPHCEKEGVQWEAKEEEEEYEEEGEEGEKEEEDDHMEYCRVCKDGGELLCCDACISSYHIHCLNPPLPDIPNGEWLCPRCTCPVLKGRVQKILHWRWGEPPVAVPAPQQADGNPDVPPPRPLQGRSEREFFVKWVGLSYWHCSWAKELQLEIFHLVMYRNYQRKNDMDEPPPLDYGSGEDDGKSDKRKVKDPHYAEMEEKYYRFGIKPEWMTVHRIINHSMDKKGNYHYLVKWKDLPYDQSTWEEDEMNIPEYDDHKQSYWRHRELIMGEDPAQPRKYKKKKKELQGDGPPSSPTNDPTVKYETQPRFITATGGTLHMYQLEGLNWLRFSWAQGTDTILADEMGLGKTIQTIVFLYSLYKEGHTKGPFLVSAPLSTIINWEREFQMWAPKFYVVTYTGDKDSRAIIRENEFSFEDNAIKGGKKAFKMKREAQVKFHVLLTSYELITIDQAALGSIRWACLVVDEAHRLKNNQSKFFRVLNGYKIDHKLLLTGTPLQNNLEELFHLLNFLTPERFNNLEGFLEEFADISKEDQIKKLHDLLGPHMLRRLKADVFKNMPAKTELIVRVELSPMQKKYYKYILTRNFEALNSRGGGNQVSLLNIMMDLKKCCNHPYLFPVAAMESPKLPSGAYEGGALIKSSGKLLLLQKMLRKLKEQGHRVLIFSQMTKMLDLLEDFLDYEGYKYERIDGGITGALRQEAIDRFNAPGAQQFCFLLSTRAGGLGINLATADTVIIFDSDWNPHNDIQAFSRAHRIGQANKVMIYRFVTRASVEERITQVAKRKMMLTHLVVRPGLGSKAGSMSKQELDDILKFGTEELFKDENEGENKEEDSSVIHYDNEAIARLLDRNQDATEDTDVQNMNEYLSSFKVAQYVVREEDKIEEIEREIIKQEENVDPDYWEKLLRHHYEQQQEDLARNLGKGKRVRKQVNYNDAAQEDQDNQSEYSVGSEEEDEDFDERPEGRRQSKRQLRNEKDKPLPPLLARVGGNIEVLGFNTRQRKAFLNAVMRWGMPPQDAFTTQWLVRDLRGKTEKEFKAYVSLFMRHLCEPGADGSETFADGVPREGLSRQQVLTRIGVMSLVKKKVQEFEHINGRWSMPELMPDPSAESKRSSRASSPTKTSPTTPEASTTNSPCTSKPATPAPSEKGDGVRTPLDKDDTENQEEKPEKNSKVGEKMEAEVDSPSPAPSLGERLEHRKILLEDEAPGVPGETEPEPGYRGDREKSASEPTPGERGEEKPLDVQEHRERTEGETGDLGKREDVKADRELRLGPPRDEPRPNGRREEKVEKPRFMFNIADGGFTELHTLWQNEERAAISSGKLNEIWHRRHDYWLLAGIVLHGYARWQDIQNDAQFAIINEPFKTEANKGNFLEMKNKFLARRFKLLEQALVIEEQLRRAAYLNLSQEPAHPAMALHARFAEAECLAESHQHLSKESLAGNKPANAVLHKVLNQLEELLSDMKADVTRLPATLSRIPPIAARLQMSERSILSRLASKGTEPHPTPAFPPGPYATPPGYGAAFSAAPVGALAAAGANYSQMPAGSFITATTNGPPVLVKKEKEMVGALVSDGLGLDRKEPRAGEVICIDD
UniProt Q6PDQ2: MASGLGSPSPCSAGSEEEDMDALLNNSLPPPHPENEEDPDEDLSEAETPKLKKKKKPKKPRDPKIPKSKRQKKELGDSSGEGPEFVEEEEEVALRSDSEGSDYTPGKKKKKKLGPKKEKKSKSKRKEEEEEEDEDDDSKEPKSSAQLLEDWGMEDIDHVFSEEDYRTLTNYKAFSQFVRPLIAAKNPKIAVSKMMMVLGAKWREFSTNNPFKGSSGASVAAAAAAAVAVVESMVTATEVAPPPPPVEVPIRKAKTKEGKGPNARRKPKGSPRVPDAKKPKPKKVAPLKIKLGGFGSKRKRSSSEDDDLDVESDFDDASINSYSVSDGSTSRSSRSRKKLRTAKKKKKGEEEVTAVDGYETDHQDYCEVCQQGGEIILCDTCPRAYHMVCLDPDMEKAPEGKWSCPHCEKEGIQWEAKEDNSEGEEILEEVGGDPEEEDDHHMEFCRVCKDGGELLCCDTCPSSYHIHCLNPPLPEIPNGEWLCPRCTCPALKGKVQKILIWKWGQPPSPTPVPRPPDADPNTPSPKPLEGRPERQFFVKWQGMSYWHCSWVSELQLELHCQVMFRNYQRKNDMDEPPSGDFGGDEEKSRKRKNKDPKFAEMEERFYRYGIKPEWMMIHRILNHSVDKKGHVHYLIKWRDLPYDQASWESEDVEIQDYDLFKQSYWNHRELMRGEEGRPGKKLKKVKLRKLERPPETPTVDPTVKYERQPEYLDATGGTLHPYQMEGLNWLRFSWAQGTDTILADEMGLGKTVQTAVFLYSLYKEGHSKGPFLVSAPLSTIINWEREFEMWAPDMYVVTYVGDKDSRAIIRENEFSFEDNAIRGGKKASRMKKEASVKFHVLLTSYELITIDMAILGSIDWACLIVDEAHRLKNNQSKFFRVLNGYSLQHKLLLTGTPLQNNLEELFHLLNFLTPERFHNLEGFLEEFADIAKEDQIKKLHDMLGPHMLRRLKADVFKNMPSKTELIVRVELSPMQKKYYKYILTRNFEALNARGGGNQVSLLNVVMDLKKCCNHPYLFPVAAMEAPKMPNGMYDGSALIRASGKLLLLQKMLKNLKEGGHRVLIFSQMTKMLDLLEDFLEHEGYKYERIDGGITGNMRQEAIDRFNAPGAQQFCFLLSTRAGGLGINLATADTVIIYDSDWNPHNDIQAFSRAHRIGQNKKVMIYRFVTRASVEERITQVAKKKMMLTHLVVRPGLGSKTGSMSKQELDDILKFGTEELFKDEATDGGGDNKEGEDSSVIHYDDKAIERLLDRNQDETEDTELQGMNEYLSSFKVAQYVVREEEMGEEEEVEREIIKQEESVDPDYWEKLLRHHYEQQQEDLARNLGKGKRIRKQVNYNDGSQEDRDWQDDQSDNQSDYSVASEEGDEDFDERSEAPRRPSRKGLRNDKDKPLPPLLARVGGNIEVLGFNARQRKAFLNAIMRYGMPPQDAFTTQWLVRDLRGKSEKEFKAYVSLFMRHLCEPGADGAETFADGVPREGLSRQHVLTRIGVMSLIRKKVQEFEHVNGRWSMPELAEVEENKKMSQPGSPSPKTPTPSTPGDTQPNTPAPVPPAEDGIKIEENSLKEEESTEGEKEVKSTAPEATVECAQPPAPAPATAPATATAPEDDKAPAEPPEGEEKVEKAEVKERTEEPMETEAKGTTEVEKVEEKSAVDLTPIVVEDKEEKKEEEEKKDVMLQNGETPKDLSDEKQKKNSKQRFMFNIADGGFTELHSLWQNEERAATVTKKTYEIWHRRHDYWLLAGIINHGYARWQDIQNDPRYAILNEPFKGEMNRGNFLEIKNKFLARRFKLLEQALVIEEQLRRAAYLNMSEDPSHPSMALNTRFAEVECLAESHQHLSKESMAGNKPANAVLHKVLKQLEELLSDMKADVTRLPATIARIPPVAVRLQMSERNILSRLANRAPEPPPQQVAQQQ
UniProt A2A8L1: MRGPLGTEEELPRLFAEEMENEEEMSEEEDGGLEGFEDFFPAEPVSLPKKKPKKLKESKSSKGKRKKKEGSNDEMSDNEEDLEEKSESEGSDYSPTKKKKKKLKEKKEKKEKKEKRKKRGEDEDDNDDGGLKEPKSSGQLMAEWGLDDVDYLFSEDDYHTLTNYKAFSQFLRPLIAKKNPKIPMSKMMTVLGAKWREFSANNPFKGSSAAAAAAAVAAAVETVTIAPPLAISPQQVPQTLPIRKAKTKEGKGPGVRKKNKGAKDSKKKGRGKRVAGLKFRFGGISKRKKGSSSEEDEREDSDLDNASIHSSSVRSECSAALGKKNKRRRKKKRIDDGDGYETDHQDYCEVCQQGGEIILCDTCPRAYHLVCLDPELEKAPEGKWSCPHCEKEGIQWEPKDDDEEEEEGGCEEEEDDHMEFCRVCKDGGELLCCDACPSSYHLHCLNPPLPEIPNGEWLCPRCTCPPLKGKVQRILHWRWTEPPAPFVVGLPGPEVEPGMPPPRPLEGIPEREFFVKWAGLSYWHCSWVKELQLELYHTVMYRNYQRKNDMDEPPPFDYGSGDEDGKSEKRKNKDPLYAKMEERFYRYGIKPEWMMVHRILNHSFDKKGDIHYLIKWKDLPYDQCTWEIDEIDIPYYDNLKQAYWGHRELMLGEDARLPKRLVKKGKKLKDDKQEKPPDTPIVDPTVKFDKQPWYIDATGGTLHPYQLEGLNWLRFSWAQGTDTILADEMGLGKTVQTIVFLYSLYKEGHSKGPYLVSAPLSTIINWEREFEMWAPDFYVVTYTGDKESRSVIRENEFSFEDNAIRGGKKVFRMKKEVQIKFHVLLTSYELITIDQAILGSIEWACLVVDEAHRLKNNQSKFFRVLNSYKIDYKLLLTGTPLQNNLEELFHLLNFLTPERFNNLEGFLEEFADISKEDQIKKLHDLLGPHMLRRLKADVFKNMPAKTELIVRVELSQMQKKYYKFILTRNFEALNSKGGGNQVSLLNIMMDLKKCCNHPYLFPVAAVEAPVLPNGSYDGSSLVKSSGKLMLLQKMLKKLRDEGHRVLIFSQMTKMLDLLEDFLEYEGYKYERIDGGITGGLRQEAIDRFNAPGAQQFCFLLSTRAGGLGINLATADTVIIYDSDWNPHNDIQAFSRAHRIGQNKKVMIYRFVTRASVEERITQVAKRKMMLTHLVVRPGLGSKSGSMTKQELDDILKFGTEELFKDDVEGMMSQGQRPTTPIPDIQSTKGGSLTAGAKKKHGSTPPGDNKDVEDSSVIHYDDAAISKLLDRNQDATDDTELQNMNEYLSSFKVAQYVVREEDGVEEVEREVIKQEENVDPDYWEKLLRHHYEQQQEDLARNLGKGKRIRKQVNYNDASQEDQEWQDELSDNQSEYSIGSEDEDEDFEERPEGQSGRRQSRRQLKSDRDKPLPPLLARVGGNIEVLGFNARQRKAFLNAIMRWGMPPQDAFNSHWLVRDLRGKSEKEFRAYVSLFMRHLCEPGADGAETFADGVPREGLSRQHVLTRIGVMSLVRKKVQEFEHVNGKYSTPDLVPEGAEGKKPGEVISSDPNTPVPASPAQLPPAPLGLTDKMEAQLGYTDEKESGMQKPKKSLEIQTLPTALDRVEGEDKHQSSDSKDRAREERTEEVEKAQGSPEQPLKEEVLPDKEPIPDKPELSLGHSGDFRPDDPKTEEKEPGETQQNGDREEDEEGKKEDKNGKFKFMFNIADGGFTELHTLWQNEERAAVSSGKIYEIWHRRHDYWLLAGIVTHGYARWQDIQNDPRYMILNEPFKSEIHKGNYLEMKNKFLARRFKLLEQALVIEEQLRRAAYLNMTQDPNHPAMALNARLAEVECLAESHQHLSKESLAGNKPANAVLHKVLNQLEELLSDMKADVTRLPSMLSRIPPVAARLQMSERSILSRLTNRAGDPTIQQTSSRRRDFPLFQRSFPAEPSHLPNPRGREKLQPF

Columns and labels:
[1] = biological target: HDAC2 (mouse (endogenous in embryonic cortex)) (UniProt P70288); assay: co-IP; lysates of mouse cortices (E12.5, E15.5, E18.5), immunoprecipitation with HDAC2 antibody, immunoblotting for NuRD subunits
[2] = biological target: CHD3 (mouse (endogenous in embryonic cortex)) (UniProt B1AR17); assay: co-IP; lysates of E15.5 mouse cortices, immunoprecipitation with CHD3, CHD4 or CHD5 antibodies, immunoblotting
[3] = biological target: CHD4 (mouse (endogenous in embryonic cortex)) (UniProt Q6PDQ2); assay: as above
[4] = biological target: CHD5 (mouse (endogenous in embryonic cortex)) (UniProt A2A8L1); assay: as above
[5] = biological target: T1, MTA2 (in cultured NPCs and differentiated neurons) (rat (endogenous in NPCs from E14.5 rat cortices)) (UniProt B2GV01); assay: co-IP; cultured NPCs and neurons differentiated from them in vitro; which protein was precipitated is not told in the text (Figures S4C and S4D)
T1 sequence: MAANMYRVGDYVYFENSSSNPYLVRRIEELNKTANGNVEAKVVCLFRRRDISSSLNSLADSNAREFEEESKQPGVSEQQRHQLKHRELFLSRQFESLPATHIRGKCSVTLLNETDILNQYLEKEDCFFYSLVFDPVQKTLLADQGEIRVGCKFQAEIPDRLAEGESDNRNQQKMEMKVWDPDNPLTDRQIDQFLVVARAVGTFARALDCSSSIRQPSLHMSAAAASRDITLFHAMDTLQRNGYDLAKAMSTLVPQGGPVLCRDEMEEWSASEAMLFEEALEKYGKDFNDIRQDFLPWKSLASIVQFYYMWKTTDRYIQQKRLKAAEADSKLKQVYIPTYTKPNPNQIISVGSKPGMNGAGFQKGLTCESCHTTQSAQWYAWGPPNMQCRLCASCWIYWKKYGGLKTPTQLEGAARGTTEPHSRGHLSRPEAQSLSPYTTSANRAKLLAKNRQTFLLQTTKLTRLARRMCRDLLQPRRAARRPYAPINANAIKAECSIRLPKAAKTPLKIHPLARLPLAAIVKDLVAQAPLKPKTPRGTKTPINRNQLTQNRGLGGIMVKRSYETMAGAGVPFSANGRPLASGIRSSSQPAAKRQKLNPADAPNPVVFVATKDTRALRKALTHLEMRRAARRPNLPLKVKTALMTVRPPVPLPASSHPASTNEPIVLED

| Substance | binding [1] | binding [2] | further results |
| --- | --- | --- | --- |
| MTA2 (from UniProt Q9R190 1-668) | binds | – | – |
| HDAC2 (from UniProt P70288 1-488) | – | binds | binding [3]: binds; binding [4]: binds |
| CHD5 (from UniProt A2A8L1 1-1946) | binds | no binding | binding [3]: no binding |
| CHD5 (in cultured NPCs and differentiated neurons) (from UniProt D3ZD32 1-1948) | – | – | binding [5]: binds |

Second part, led by results:

| binding [1] | binding [2] | Substance | further results |
| --- | --- | --- | --- |
| binds | – | MTA1 (from UniProt Q8K4B0 1-715) | – |
| binds | – | CHD3 (from UniProt B1AR17 1-2055) | – |
| binds | no binding | CHD4 (from UniProt Q6PDQ2 1-1915) | – |
